No constants are given. Whether binding was seen depends on the method and setting. Some results given as binding are weak or reduced against the parent protein; the word gives no strength.

This is an account of results in US20160139131A1 (BIOALLIANCE C V, published 2016).

The assay addresses T1, soluble recombinant hCD43 20-253 expressed by COLO 205 cells (human) (UniProt P16150).
T1 sequence (glycoform of COLO 205 cells, looked up): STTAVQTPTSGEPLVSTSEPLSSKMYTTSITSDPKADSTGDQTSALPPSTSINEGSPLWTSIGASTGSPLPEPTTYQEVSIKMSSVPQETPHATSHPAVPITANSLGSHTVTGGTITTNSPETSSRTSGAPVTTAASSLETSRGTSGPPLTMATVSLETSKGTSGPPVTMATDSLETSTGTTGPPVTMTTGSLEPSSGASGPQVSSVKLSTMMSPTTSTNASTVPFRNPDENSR
The experiment in a line: Western blot of protein A purified soluble CD43. (In general: Immunoblotting shows a protein as a band on a membrane.)

B1: monoclonal antibody 51-41 (antibody, V domains shown)
VH: EVQLQQSGTVLARPGASVKMSCKASGYSFTSYWMHWVKQRTGQGLEWIGAISPGDGDTTYNQKFTGKAKLTAVTSASTAYMELSSLTHEDSAVYYCTRRDGSYQVAWFAYWGRGTLVTVSA
VL: DVLMTQTPLSLPVSLGDQASISCRSSQSIVHSNGNTYLEWFLQKPGQSPKLLIYKVSNRFSGVPDRFSGSGSGTDFTLKISRVEAEDLGVYYCFQGSHVPFTFGSGTKLEIK
Consider B1, for which the binding entry is “binds”.

B2: monoclonal antibody 138-10 (antibody, V domains shown)
VH: EVQLQQSGTVLARPGASVKMSCKASGYSFISYWMHWVKQRPGQGLEWIGAISPGDSDTTYNQRFTGKAKLTAVTSASTAYMELSSLTNEDSAVYYCIRRDGNYQVAWFAYWGQGTLVTVSA
VL: DVLMTQTPLSLPVSLGDQASISCRSSQSIVHSNGNTYLEWYLQKPGQSPKLLIYKVSNRFSGVPDRFSGSGSGTDFTLKISRVEAEDLGVYYCFQGSHVPFTFGSGTKLEIK
For B2, the binding entry is reported as “binds”.
